# Data published in patent US20170290821A1 (priority 2014, published 2017).
# Where two headings read alike, the source gives them in different places.
# System: influenza virus A/WSN RG#1-1 strains
# Test: microbe, parasite or virus in culture
# Type: cell-based
# Details: unidentified influenza virus, read-out: IC50 (50% virus replication inhibitory concentration)
smiles,measurement,setting,value
"CCS(=O)(=O)N1CC(CC#N)(n2cc(-c3ncnc4[nH]ccc34)cn2)C1 [Compound J6, 2-[1-ethylsulfonyl-3-[4-(7H-pyrrolo[2,3-d]pyrimidin-4-yl)-pyrazol-1-yl]azetidin-3-yl]acetonitrile]",IC50,"A549, 48 h",31.6 µM
same,IC50,"HEK293, 48 h",31.6 µM
